Experimental data as given in US20210032312A1.

Columns and labels:
[1] = biological target: cynomolgus monkey CD8A (cynomolgus monkey); experiment: in vivo PET organ uptake in cynomolgus monkeys, nondepleted against CD8-depleted (anti-CD8 antibody CM-T807), 0.25 h and 2 h after injection
[2] = biological target: cynomolgus monkey CD8A (cynomolgus monkey); experiment: in vivo PET spleen uptake in cynomolgus monkeys, nondepleted against CD8-depleted (anti-CD8 antibody CM-T807), 0.25 h and 2 h after injection
[3] = biological target: cynomolgus monkey CD8A (cynomolgus monkey); experiment: PET imaging of cynomolgus monkeys with and without CD8 T cell depletion

Measured: binding

B1: [124I]-IPEM CD8S365 (designed binder)
chain: LPAPKNLVVSRVTEDSARLSWTAPDAAFDSFGILYYEPVDSGEAITLPVPGSCRSYDLTGLKPGTEYWVVITGVKGGAPSTPLGTIFTT
modifications: [124I]-IPEM (maleimide label) conjugated to the free cysteine of E54C
binds: all assays above

These are yes or no findings as the source states them, for the method shown. A result given as binding can be weak or reduced; the word gives no strength.
